Test results: publication doi:10.1101/2025.09.09.675193
No constants are given. Whether binding was seen depends on the method and setting. Binding seen in cells or lysates may run through a third protein. Some results given as binding are weak or reduced against the parent protein; the word gives no strength. Sequences can lack the tags named with a protein.

Protein sequences, listed by entry. Tags and fused reporters are not part of them. Lines headed by an entry give the natural chain unless they say otherwise; changes in a name come on top.
UniProt Q92547: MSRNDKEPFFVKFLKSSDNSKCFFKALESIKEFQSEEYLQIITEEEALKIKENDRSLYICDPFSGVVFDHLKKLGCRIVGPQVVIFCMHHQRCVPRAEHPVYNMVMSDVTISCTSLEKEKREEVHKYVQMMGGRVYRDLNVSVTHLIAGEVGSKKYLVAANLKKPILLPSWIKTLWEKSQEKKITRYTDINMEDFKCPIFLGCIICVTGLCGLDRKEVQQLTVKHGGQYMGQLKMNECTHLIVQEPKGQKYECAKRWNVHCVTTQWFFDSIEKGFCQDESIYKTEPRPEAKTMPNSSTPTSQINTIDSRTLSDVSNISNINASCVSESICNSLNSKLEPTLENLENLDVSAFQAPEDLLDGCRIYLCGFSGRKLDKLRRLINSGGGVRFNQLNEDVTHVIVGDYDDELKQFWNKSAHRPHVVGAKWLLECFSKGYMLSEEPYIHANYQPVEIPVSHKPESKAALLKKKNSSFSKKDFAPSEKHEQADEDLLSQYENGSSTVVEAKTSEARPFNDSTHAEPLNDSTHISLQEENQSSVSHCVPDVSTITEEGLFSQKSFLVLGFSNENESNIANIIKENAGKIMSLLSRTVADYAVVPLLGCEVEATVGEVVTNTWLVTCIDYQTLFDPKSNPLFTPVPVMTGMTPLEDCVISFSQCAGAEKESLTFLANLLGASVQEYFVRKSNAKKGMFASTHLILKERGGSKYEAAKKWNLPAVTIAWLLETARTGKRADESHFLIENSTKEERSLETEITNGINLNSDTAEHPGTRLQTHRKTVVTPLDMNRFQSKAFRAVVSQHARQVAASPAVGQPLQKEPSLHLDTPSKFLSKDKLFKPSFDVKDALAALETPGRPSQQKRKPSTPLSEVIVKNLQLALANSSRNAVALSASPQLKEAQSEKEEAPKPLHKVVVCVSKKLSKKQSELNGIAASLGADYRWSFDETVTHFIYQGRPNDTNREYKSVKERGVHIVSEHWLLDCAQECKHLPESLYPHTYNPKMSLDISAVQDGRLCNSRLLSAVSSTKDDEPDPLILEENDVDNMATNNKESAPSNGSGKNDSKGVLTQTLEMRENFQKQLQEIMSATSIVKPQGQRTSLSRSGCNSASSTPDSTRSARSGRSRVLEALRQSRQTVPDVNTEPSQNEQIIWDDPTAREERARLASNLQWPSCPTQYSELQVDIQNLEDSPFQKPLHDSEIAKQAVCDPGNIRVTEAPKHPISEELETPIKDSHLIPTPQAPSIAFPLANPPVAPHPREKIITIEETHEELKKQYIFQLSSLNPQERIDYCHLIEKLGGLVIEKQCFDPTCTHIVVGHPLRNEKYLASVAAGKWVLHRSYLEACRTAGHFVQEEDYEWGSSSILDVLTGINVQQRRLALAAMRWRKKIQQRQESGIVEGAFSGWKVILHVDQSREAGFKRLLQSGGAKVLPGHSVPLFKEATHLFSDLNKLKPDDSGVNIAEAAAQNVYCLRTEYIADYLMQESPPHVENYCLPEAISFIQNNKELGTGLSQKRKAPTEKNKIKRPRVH

What was measured:
Assay in all cases: co-IP
[1] = biological target: GFP-TOPBP1 BRCT5 mutant (K704A) (human) (UniProt Q92547)
[2] = biological target: GFP-TOPBP1 BRCT5+7 double mutant (K704A and K1317A) (human) (UniProt Q92547)
[3] = biological target: GFP-TOPBP1 BRCT7 mutant (K1317A) (human) (UniProt Q92547)
[4] = biological target: GFP-tagged WT TOPBP1 (human) (UniProt Q92547)

binding [1]: binds
binding [2]: binds weakly
binding [3]: binds
binding [4]: binds
B1: Halo-tagged DDIAS, wild type (protein, UniProt Q8IXT1-1 1-998)
chain: MNRRRKFLLASVLALQNSSFIYPSCQKCFSRIILVSKRSNCPKCGSTGESGNANYRYKLSLKVAESNKLFVITVFGSCLDTFFGLTATGLHRYIQDPNKIPETLDNDTTQNLLTKAVETCFVGQSFIFGVTNFENQPGQGSDASNFLQQCSDHKRKAKALVACQIVLPDPGIAGFTVIDYFHQLLQTFNFRKLQCDSQAPNNHLLALDHSNSDLSSIYTSDSTSDFFKSCSKDTFSKFWQPSLEFTCIVSQLTDNDDFSASEQSKAFGTLQQNRKSISIAEATGSSSCHDPIQDSWSLVSYMDKKSTAEKLGKELGLQAKELSAVHSSHHEIGVNDSNLFSLEMREPLESSNTKSFHSAVEIKNRSQHELPCFQHHGIDTPTSLQKRSACCPPSLLRLEETASSSQDGDPQIWDDLPFSESLNKFLAVLESEIAVTQADVSSRKHHVDNDIDKFHADHSRLSVTPQRTTGALHTPPIALRSSQVIVKANCSKDDFLFNCKGNLSPSVEKESQPDNKVEAVSVNHNGRDMSEYFLPNPYLSALSSSSKDLETIVTLKKTIRISPHRESDHSSLNNKYLNGCGEISVSEMNEKLTTLCYRKYNDVSDLCKLENKQYCRWSKNQDDSFTICRKLTYPLETLCNSPNRSTNTLKEMPWGHINNNVTQSYSIGYEGSYDASADLFDDIAKEMDIATEITKKSQDILLKWGTSLAESHPSESDFSLRSLSEDFIQPSQKLSLQSLSDSRHSRTCSPTPHFQSDSEYNFENSQDFVPCSQSTPISGFHQTRIHGINRAFKKPVFYSDLDGNYEKIRIFPENDKQQASPSCPKNIKTPSQKIRSPIVSGVSQPDVFNHYPFAECHETDSDEWVPPTTQKIFPSDMLGFQGIGLGKCLAAYHFPDQQELPRKKLKHIRQGTNKGLIKKKLKNMLAAVVTKKKTHKYNCKSSGWISKCPDIQVLAAPQLHPILGPDSCSEVKCCLPFSEKGPPSVCETRSAWSPELFS
